Reference: US20220193047A1, “METHODS OF ENHANCING RADIOTHERAPY USING FERROPTOSIS INDUCERS AS RADIOSENSITIZERS” (THE TRUSTEES OF COLUMBIA UNIVERSITY IN THE CITY OF NEW YORK, priority 2019, published 2022)
At least one compound was matched to its structure with a doubt left.

What was measured:
HT-1080 cells [1] = assay: Clonogenic assay with Cs-137 gamma radiation, HT-1080; assay type: cell-based; conditions: HT-1080, cell death inducer plus radiation
Method: 500 cells were seeded per well in 6-well plates in their respective growth media and incubated overnight. The next day, cells were co-treated with DMSO or compounds and radiation using a Gammacell 40 Caesium-137 irradiator (Theratronics). Plates were monitored every day using a light microscope for formation of colonies in the DMSO-treated wells. When colonies of >50 cells are clearly visible, the growth medium was discarded from all plates. The cells were washed with PBS, then fixed and stained with crystal violet solution (0.05% crystal violet, 1% formaldehyde, 1% methanol in PBS). Colonies were then directly visualized and counted.
We tested their ability to prevent clonogenic growth, along with DMSO-treated controls.
The coefficient of drug interaction (CDI), used to compute interaction between two drugs, was used to quantify synergy between cell death inducers and radiation according to the formula CDI=AB/(A×B), where AB is the surviving fraction of the combination treatment, and A and B are the surviving fractions of the individual treatments.

[2] = system: models of glioma, melanoma, and breast cancer; conditions: Cobler et al., 2018, Nagane et al., Sleire et al., 2015; cited from earlier work
HT-1080 cells [3] = assay: Cell Titer Glo cell viability assay with radiation; assay type: cell-based; conditions: HT-1080, 4 Gy radiation for 24 h
Method: HT-1080 cells were plated at 1,000 cells per well in white 96-well plates (100 uL per well) in technical duplicates. The cells were then treated with vehicle (DMSO), Ferrostatin-1, DFO, Z-VAD-FMK or Necrostatin-1S and incubated overnight. […] After another 24 h, 100 uL of 50% Cell Titer Glo (Promega) 50% cell culture medium was added to each well and incubated at room temperature with shaking for 15 min. Luminescence was measured using a Victor X5 plate reader (PerkinElmer). Experiments were performed three independent times with different passages for each cell line.

## CO[C@H]1C[C@@H]2CC[C@@H](C)[C@@](O)(O2)C(=O)C(=O)N2CCCC[C@H]2C(=O)O[C@H]([C@H](C)C[C@@H]2CC[C@@H](O)[C@H](OC)C2)CC(=O)[C@H](C)/C=C(\C)[C@@H](O)[C@@H](OC)C(=O)[C@H](C)C[C@H](C)/C=C/C=C/C=C/1C [rapamycin]
HT-1080 cells [1]
  Enhancement of radiation effect on clonogenic survival: only slightly enhancing radiation-induced cell death

## CCOc1ccccc1-n1c(C(C)N2CCN(C(=O)COc3ccc(Cl)cc3)CC2)nc2ccccc2c1=O (stereo not drawn) [erastin]
[2]
  Potentiation of radiation (prior reports): potentiate radiation

## CC(=O)N(O)CCCCCNC(=O)CCC(=O)N(O)CCCCCNC(=O)CCC(=O)N(O)CCCCCN [Deferoxamine]
HT-1080 cells [3]
  Cell viability after radiation (ATP-based luciferase assay): rescued from death
